PubChem BioAssay AID1259254 – NCATS – 2017
In all, the deposit lists about 59,000 reagents; shown is a random part of them. Over the whole deposit, about 1,550 (2.6%) got an active call. 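G2 share is only a proxy for re-replication; each gene was hit by three separate siRNAs, and active genes were retested.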 A number with no mark means an inactive call. Not all columns of the deposit are shown. Not stated in the record: the amount of reagent.

Screen: 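Gene knock-downs that lead to re-replication, shown by excess G2 DNA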 (primary screen)
Cell system: human HCT116 colorectal cancer cells
Reagent: single siRNA against human genes
Time to read-out: 3 days
Measurement: 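Nuclei stained with Hoechst and imaged; cell-cycle phase assigned by DNA content; G2 share scaled per plate, non-targeting siRNA 0%, GMNN siRNA 100%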
Direction: G2 robust z-score: higher = more G2 cells, more excess DNA replication
Rule for the call: 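An siRNA counts as active if its G2 robust z-score lies at least 5 MADs above the screen median; here such calls match roughly 38% of GMNN control or more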

What is on record for RPS3AP5 (RPS3A pseudogene 5) [SID160725371]?
G2 robust z-score: 4.94

Which result is listed for RPS3AP5 (RPS3A pseudogene 5) [SID160733373]?
G2 robust z-score: -0.375

Which result is listed for RPS3AP5 (RPS3A pseudogene 5) [SID160767656]?
G2 robust z-score: 5.84 (active)

For ZNF468 (zinc finger protein 468) [SID160753653], how do the results read?
G2 robust z-score: 0.076

What did the screen give for ZNF468 (zinc finger protein 468) [SID160753655]?
G2 robust z-score: 0.225

For ZNF468 (zinc finger protein 468) [SID160753656], how do the results read?
G2 robust z-score: -0.438

With PNP (purine nucleoside phosphorylase) [SID160778172], what does the deposit list?
G2 robust z-score: 0.0999

For PNP (purine nucleoside phosphorylase) [SID160778173], what was measured?
G2 robust z-score: 0.107

For PNP (purine nucleoside phosphorylase) [SID160778174], what does the deposit list?
G2 robust z-score: -0.0822

For UBE2QL1 (ubiquitin conjugating enzyme E2 QL1) [SID160757298], what was measured?
G2 robust z-score: 0.605

With UBE2QL1 (ubiquitin conjugating enzyme E2 QL1) [SID160757299], what was measured?
G2 robust z-score: -0.687

With UBE2QL1 (ubiquitin conjugating enzyme E2 QL1) [SID160757300], how do the results read?
G2 robust z-score: -0.603

With TAB3 (TGF-beta activated kinase 1 (MAP3K7) binding protein 3) [SID160730899], what was measured?
G2 robust z-score: -0.199

What did the screen give for TAB3 (TGF-beta activated kinase 1 (MAP3K7) binding protein 3) [SID160762562]?
G2 robust z-score: -0.364

Which result is listed for TAB3 (TGF-beta activated kinase 1 (MAP3K7) binding protein 3) [SID160762563]?
G2 robust z-score: 0.038

With OXR1 (oxidation resistance 1) [SID160742875], what does the deposit list?
G2 robust z-score: 0.106

With OXR1 (oxidation resistance 1) [SID160742876], what does the deposit list?
G2 robust z-score: 1.18

How did the screen score OXR1 (oxidation resistance 1) [SID160742877]?
G2 robust z-score: -0.699

How did the screen score RPS19 (ribosomal protein S19) [SID160716197]?
G2 robust z-score: 4.86

Which result is listed for RPS19 (ribosomal protein S19) [SID160724047]?
G2 robust z-score: 2.09

How did the screen score RPS19 (ribosomal protein S19) [SID160724048]?
G2 robust z-score: 5.51 (active)

For RDH10 (retinol dehydrogenase 10) [SID160759519], what was measured?
G2 robust z-score: -1.17

What is on record for RDH10 (retinol dehydrogenase 10) [SID160759521]?
G2 robust z-score: 3.07

For RDH10 (retinol dehydrogenase 10) [SID160759522], what does the deposit list?
G2 robust z-score: -1.31

Hits, among the entries above:
RPS3AP5 (RPS3A pseudogene 5) [SID160767656] — G2 robust z-score = 5.84 (active)
RPS19 (ribosomal protein S19) [SID160724048] — G2 robust z-score = 5.51 (active)
